# Primary screen of a compound library

Chains of the proteins cited; added tags and fusions are not shown. Residues count along the entry.
UniProt Q4DA54, 1-478: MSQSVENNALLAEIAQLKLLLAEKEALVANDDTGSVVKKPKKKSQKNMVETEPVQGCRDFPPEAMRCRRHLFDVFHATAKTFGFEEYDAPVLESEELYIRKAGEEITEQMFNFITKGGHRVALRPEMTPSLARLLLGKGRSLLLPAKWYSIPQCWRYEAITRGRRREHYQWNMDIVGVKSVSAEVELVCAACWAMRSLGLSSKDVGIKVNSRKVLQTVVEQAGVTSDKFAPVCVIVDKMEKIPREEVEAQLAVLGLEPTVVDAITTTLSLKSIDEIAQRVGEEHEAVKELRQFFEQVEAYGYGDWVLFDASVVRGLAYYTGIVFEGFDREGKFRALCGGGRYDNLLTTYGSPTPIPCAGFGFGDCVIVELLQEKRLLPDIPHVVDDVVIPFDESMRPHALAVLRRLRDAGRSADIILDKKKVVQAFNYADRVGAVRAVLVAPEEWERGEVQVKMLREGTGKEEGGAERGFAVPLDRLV
UniProt P9WPC5, whole entry: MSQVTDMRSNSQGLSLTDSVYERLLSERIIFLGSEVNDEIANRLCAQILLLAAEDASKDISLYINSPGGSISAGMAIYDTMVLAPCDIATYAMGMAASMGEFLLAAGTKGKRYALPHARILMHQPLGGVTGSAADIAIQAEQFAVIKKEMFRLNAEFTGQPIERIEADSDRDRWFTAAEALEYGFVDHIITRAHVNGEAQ
UniProt P9WPC3, whole entry partner: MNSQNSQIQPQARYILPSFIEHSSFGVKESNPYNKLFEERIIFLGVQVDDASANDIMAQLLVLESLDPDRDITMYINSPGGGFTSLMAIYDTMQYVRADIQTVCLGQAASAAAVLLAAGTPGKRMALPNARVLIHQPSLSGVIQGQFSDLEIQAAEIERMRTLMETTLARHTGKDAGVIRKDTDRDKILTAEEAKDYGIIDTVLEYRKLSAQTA
UniProt Q8IDJ8, 1-583: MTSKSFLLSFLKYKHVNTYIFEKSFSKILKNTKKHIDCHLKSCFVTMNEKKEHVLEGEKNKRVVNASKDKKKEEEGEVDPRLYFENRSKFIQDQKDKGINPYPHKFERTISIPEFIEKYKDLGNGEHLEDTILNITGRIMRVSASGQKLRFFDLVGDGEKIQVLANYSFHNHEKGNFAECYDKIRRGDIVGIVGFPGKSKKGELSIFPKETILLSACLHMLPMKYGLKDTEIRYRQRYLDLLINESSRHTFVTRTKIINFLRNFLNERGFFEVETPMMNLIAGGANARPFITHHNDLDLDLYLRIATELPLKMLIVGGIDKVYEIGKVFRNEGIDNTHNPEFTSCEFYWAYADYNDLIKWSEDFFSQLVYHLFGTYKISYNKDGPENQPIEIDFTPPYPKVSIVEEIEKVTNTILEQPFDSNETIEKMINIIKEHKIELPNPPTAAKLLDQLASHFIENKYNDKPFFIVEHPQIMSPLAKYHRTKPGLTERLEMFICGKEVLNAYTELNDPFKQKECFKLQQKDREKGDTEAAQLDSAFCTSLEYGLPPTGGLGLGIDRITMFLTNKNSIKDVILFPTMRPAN

From ChEMBL document CHEMBL3988442, “University of Dundee, Small-Polar-MMV Screening Library” (2021).

Results are given as percent effect.
The record does not define 0% and 100%; most values in the screen are far below 50% and negative numbers occur (in some assays of this library far below -100).
Compounds were drawn at random from those tested, without regard to their results.

Leishmania in macrophages: 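Cell assay of Leishmania donovani living inside macrophages; the read-out is not stated. Tested at 30 µM. Higher reads as stronger inhibition (inferred: compounds with an IC50 in retests scored well above the rest). Of about 69,000 compounds tested this way, about 1,000 (1.5%) reached 50% or more in at least one test.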
TcHisRS: 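Histidine-tRNA ligase, Trypanosoma cruzi CL Brener (UniProt Q4DA54). Enzyme assay of histidyl-tRNA synthetase; the read-out is not stated. Tested at 30 µM. Higher reads as stronger inhibition (inferred: compounds with an IC50 in retests scored well above the rest). Of about 69,000 compounds tested this way, about 31 (0.045%) reached 50% or more in at least one test.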
ClpP1P2: 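Protease assay of ClpP1P2, read by the AMC dye that it sets free. Target: ClpP1P2, Mycobacterium tuberculosis (UniProt P9WPC5 and UniProt P9WPC3). Compounds at 50 µM. Direction is inferred from only a few compounds that gave an IC50; most scored high, so higher reads as stronger inhibition. Most other retested compounds had strongly negative values. Of about 69,000 compounds tested this way, about 10 (0.015%) reached 50% or more in at least one test.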
Toxoplasma: 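Assay of Toxoplasma gondii numbers, read through their beta-galactosidase reporter with a colour substrate. Compounds at 10 µM. Higher reads as fewer parasites (inferred from which compounds were picked for retests). Size under these conditions: about 67,000 compounds, about 260 of them at 50% or above in at least one test.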
PfKRS1: 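Lysine-tRNA ligase, Plasmodium falciparum 3D7 (UniProt Q8IDJ8). Enzyme assay of the cytosolic lysyl-tRNA synthetase in 384-well plates, read by luminescence. Tested at 30 µM. Higher reads as stronger inhibition, judged from the few compounds that gave an IC50. About 69,000 compounds were tested under these conditions; 0.071% (about 49) showed 50% or more at least once.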

{"smiles": "Cn1cc(CN2CCC(Cn3cc(-c4ccccc4)nn3)CC2)cn1", "Leishmania in macrophages": 18.81, "TcHisRS": 0, "ClpP1P2": -11.96, "Toxoplasma": -4.619, "PfKRS1": -1.731}
{"smiles": "Cn1cc(CN2CCC(F)(F)C3(CCN(c4ncc(F)cn4)C3)C2)cn1", "stereo": "centres undefined", "TcHisRS": -2, "ClpP1P2": -0.2266, "PfKRS1": 2.65}
{"smiles": "Fc1ccccc1-c1nc(CNCCn2cccn2)cs1", "Leishmania in macrophages": 38.38, "TcHisRS": 12.87, "ClpP1P2": -23.87, "Toxoplasma": 1.946, "PfKRS1": -1.331}
{"smiles": "CCc1ncc2c(n1)CN(CC(=O)Nc1ccncc1)CC2", "Leishmania in macrophages": 32.66, "TcHisRS": 4.624, "ClpP1P2": -38.94, "Toxoplasma": -4.195, "PfKRS1": 2.249}
{"smiles": "COC1COC2(CCN(CC3CCOCC3)CC2)C1", "stereo": "centres undefined", "TcHisRS": 0.5025, "ClpP1P2": 0.821, "PfKRS1": 1.663}
{"smiles": "CCOc1ccccc1CNCC1CCN(CC(C)O)CC1", "stereo": "centres undefined", "Leishmania in macrophages": 14.79, "TcHisRS": 7.059, "ClpP1P2": -28.72, "Toxoplasma": -9.723, "PfKRS1": 1.067}
{"smiles": "Cc1cc(N(C)C)nc(N2CC(n3cccn3)C2)n1", "Leishmania in macrophages": -5.237, "TcHisRS": 2.597, "ClpP1P2": 0.09469, "Toxoplasma": 1.731, "PfKRS1": 3.827}
{"smiles": "CCOCC1CN(S(C)(=O)=O)Cc2cnn(C)c21", "stereo": "centres undefined", "Leishmania in macrophages": 18.55, "TcHisRS": -0.5405, "ClpP1P2": 5.744, "Toxoplasma": 0.2137, "PfKRS1": 5.885}
{"smiles": "COc1ccc(CNCC2CN(C3CC3)CCO2)cc1C", "stereo": "centres undefined", "Leishmania in macrophages": 38.27, "TcHisRS": 6.931, "ClpP1P2": -0.8227, "Toxoplasma": 12.53, "PfKRS1": 2.781}
{"smiles": "Cc1ccc(Cl)cc1NC(=O)Nc1c[nH]c(=O)[nH]c1=O", "Leishmania in macrophages": 17.65, "TcHisRS": 2.97, "ClpP1P2": -3.249, "Toxoplasma": 10.78, "PfKRS1": 2.413}
{"smiles": "Cc1cccc(-c2nc(CN3CCc4c(ncn4C)C3)no2)c1", "Leishmania in macrophages": -17.52, "TcHisRS": 2.29, "ClpP1P2": -0.2474, "Toxoplasma": -0.9529, "PfKRS1": -2.91}
{"smiles": "CCOc1cccc(C(=O)N2CCN(c3nccc(OC)n3)CC2)c1", "Leishmania in macrophages": 2.035, "TcHisRS": 0.7576, "ClpP1P2": -4.181, "Toxoplasma": -9.605, "PfKRS1": 1.245}
{"smiles": "O=C1CC[C@H]2[C@H](CCN2C(=O)C2CCCO2)N1Cc1ccncc1", "stereo": "some centres undefined", "TcHisRS": -3.825, "ClpP1P2": 15.25, "PfKRS1": 0.7347}
{"smiles": "[H][C@@]12COC[C@]1([H])[C@@H](OCc1cccnc1)CN2C(=O)c1ccc(C#N)cc1", "Leishmania in macrophages": -5.282, "Toxoplasma": 24.06}
{"smiles": "Cc1cc(C(=O)NCc2csc(N(C)C)n2)c2ccc(C)c(C)c2n1", "Leishmania in macrophages": 29.6, "TcHisRS": 8.901, "ClpP1P2": 1.033, "Toxoplasma": -2.363, "PfKRS1": 1.275}
{"smiles": "Cc1cc(C(=O)CN(Cc2cccnc2)CC2CCCO2)c(C)[nH]1", "stereo": "centres undefined", "Leishmania in macrophages": -3.108, "TcHisRS": 9.756, "ClpP1P2": 12.21, "Toxoplasma": -8.202, "PfKRS1": 11.14}
{"smiles": "COc1c(Cl)cccc1NCc1csc(C)n1", "Leishmania in macrophages": -4.371, "TcHisRS": 1.667, "ClpP1P2": -9.296, "Toxoplasma": -18.98, "PfKRS1": 3.023}
{"smiles": "CN(C)C(=O)c1n[nH]c2c1CN(Cc1ccccn1)CC2.O=C(O)C(F)(F)F", "Leishmania in macrophages": 2.487, "Toxoplasma": -1.354}
{"smiles": "CN1C[C@@H]2CN(Cc3ccsc3)CCC[C@]2(C(=O)O)C1", "TcHisRS": 7.65, "ClpP1P2": -6.07, "PfKRS1": 4.097}
{"smiles": "CCN(C)c1ncnc2c1CCN(C(=O)NCc1cccnc1)CC2", "TcHisRS": 3.279, "ClpP1P2": 0.5456, "PfKRS1": 4.025}
{"smiles": "c1cncc(COC[C@H]2CC[C@H]3[C@H](CCN3Cc3nccs3)O2)c1", "TcHisRS": 5.102, "ClpP1P2": 5.878, "PfKRS1": -3.696}
{"smiles": "COCCN(C)C[C@@H]1CN(Cc2ccnc3ccccc23)C[C@@H]1CO", "Leishmania in macrophages": 39.64, "TcHisRS": 14.43, "ClpP1P2": -7.673, "Toxoplasma": -4.016, "PfKRS1": 1.298}
{"smiles": "Cc1noc(C)c1C(=O)N1CC[C@]2(C[C@@H](OCc3cccnc3)CO2)C1", "TcHisRS": 0.9804, "ClpP1P2": -17.87, "PfKRS1": -0.8957}
{"smiles": "Nc1nc2c(c(N3CCCC(c4nnc5ccccn45)C3)n1)CCNC2", "stereo": "centres undefined", "Leishmania in macrophages": -19.4, "TcHisRS": 11.7, "ClpP1P2": -1.293, "Toxoplasma": -3.22, "PfKRS1": 3.077}
{"smiles": "CC(C)(C)C(=O)N1CCC(n2cc(C3(O)CCCC3)nn2)CC1", "Leishmania in macrophages": 3.774, "TcHisRS": 7.792, "ClpP1P2": 3.006, "Toxoplasma": 6.146, "PfKRS1": 4.423}
{"smiles": "CCC(C)(C)NC(=O)Cn1nc(C)nc1-c1ccccc1", "Leishmania in macrophages": -5.337, "TcHisRS": 3.198, "ClpP1P2": -21.5, "Toxoplasma": -2.481, "PfKRS1": -0.9387}
{"smiles": "Cc1nc(CN2C(=O)CC[C@@H]3[C@H]2CCN3C(=O)c2ccccn2)cs1", "TcHisRS": 5.911, "ClpP1P2": 2.687, "PfKRS1": 0.3483}